The campaign covered roughly 360,000 compounds. About 290 (0.081%) were called active. The shares of active, inactive and inconclusive entries below differ from those in the screen. The call rests on the fitted dose curve; in most records, active means well fitted activation curve with a large enough effect; inconclusive means small, poorly fitted or top-dose-only effect; inactive means no such curve, though single readings can be large or run the other way. Where the call is inconclusive, the potency comes from a doubtful curve fit.
Biological target: Rap guanine nucleotide exchange factor 4 (Homo sapiens) (UniProt Q8WZA2)
Assay: qHTS for Agonist of cAMP-regulated guanine nucleotide exchange factor 4 (EPAC2): primary screen; further: nearly all actives have a fitted effect of over 50% in size
Details: biochemical qHTS; Potency: EPAC2 activation unless noted; activation: at 154 µM (top of the series), 100% = 6.5 mM cAMP response unless noted
Procedure, shortened: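 Exchange assay: 100 nM EPAC2 with 250 nM Rap1B-BODIPY-GDP and 50 uM GDP. Fluorescence (ex 480/em 540 nm) read every 5 min for 30 min at room temperature. Data normalized to 6.5 mM cAMP as agonist control.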
Potency means the concentration at half of the fitted maximal effect.

Protein sequences, listed by entry. Tags and fused reporters are not part of them.
UniProt Q8WZA2, whole entry, looked up: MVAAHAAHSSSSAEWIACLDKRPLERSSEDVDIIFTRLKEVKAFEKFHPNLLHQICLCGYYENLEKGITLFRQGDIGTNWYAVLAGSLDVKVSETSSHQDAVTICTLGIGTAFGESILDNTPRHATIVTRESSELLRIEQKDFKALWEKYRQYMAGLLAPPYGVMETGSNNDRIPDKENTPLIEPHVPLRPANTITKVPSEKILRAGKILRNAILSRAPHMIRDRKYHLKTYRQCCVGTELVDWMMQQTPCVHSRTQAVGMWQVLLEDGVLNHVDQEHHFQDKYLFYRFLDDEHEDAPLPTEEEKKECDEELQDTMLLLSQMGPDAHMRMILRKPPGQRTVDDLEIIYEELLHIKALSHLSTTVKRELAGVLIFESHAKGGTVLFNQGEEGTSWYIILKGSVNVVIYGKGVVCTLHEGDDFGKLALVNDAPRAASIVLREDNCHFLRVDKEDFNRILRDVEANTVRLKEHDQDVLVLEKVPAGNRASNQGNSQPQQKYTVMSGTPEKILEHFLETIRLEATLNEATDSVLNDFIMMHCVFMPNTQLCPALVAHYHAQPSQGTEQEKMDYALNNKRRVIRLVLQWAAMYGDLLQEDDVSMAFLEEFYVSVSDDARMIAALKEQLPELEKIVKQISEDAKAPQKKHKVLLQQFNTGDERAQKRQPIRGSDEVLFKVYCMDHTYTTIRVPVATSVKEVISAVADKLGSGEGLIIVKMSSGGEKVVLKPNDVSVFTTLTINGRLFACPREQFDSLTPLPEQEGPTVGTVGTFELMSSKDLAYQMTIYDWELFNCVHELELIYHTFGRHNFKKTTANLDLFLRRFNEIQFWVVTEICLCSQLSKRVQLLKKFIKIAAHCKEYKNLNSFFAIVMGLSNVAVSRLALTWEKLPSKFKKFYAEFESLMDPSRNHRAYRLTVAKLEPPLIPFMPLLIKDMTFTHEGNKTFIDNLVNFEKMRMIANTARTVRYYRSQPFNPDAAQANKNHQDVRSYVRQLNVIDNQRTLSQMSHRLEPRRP

SMILES	Potency	activation
O=C(NCCN1C(=O)C2C3C=CC(C3)C2C1=O)N1CCOCC1 (stereo unspecified)	inconclusive: 35.5 µM [activator, partial curve]	–
O=C1/C(=C/c2ccc(N3CCCC3)cc2)NC(=S)N1C1CC1	inconclusive: 112 µM [activator, partial curve]	–
O=C(O)CCSC(=S)N1CCOCC1	inactive	–
CCn1c(=O)c(C(=O)Nc2cccnc2)c(O)c2ccccc21	inconclusive: 112 µM [activator, single point]	–
CC[n+]1c(/C=C/C=C/N(C(C)=O)c2ccccc2)sc2cc(OC)ccc21	inconclusive: 100 µM [activator, partial curve]	–
CCOC(=O)N(C)c1c(CC)nc2c(OCc3ccccc3C)cccn12	inactive	–
Cc1ccc(C2=NN=C(NC(=O)CSc3nncn3C)SC2)cc1	inconclusive: 126 µM [activator, single point]	–
N#Cc1c(F)cccc1N1CCN(Cc2ccc3c(c2)OCO3)CC1	inconclusive: 112 µM [activator, partial curve]	–
Cn1cc(/C=C/c2cc[n+](C)cc2)c2cc(F)ccc21	inconclusive: 112 µM [activator, single point]	–
CN(CC(=O)Nc1cccc(F)c1)C(=O)C1CCC(C(=O)N(C)CC(=O)Nc2cccc(F)c2)CC1 (stereo unspecified)	inactive	–
Cc1nn2c(CN(C(=O)COc3ccccc3)c3ccccc3)nnc2c2ccccc12	inconclusive: 126 µM [activator, partial curve]	–
Cc1cc([N+](=O)[O-])ccc1N1C(=O)c2ccc(C(=O)Nc3ccccc3C(=O)O)cc2C1=O	inactive	–
O=C(c1ccco1)N1CCN(c2cc(=O)n(C3CCCCC3)c(=O)[nH]2)CC1	inconclusive: 112 µM [activator, single point]	–
C/C(=N\NC(=O)CSc1nc2ccccc2o1)c1ccc(O)cc1	inactive	–
COc1ccc(S(=O)(=O)/N=C2/NC(=O)/C(=C/c3ccco3)S2)cc1	inactive	–
O=C(NC1CCCCC1)C(c1ccncc1)n1c(=O)c(-c2cc3ccccc3[nH]2)nc2ccccc21 (stereo unspecified)	inactive	–
Cc1cccc(Cn2cc(/C=C/[N+](=O)[O-])c3ccccc32)c1	inconclusive: 112 µM [activator, partial curve]	–
Cc1cccc(C)c1N1C(=O)CC(N2CCSCC2)C1=O (stereo unspecified)	inconclusive: 5.01 µM [activator, full curve, poor fit]	–
O=C(NC(CO)Cc1ccccc1)c1ccccc1 (stereo unspecified)	inconclusive: 25.1 µM [activator, full curve, poor fit]	–
CSc1nnc(-c2ccccc2)c(-c2ccccc2)n1	inactive	–
Cn1c(C(=O)NCC2CCCO2)cc2oc3ccccc3c21 (stereo unspecified)	–	inconclusive: 190% [activator] [at 15.6 µM, 100% = 6.5 mM cAMP response]
O=C(CSc1nnc(-c2cccnc2)n1CCc1ccccc1)NCc1ccccc1	inconclusive: 50.1 µM [activator, single point]	–
COc1cc(NC(=O)Nc2cccc(Cl)c2)c(OC)cc1NC(=O)CN1CCCCC1	–	inconclusive: 271% [activator] [at 15.6 µM, 100% = 6.5 mM cAMP response]
CCCCCc1c(Cc2ccccc2)ncn1CCc1ccccc1OC	inconclusive: 100 µM [activator, partial curve]	–
COc1ccccc1-n1cc(-c2ccccc2)c2c(=S)nc[nH]c21	inactive	–
Cc1cc(N2CCOCC2)nc(SCc2c(Cl)cccc2Cl)n1	inconclusive: 126 µM [activator, single point]	–

SMILES	Potency	activation
O/N=C/c1ccccc1OCc1ccccc1F	inactive	–
CCCCOCCCNC(=O)C[C@@H]1C[C@@]2(C(=O)OC)CCCCC=C2N(Cc2cccc3ccccc23)C1=O	inactive	–
COc1ccc(N=Cc2c(O)n(-c3cccc(C)n3)c(=O)c3ccccc23)c(OC)c1	active: 100 µM	–
CCN(CC)c1ccc2cc(-c3nnc(-c4ccccc4)o3)c(=O)oc2c1	active: 35.5 µM	–
CCN(CC)c1ccc2cc(C(N)=O)c(=N)oc2c1	active: 89.1 µM	–
CCN(CCn1cccn1)C(=O)CCc1nnc(-c2ccccc2)o1	inactive	–
Nc1cccc(N2C(=O)c3cccc4c(N)ccc(c34)C2=O)c1	active: 89.1 µM	–
CCOC(=O)C1CCCN(C(=O)c2ccc3[nH]c4c(c3c2)CC(C)CC4)C1 (stereo unspecified)	inactive	–
CCOC(=O)c1c(C)nc2c(c1-c1ccc(OC)c(OC)c1)C(=O)c1ccccc1-2	inconclusive: 63.1 µM [activator, partial curve]	–
CCn1cc(/C=C/c2cc[n+](C)cc2)c2ccccc21	inconclusive: 112 µM [activator, single point]	–
O=C(NCc1cccs1)c1cc2c(s1)-c1ccccc1OC2	inconclusive: 50.1 µM [activator, partial curve]	–
COc1ccc(NC(=O)C2CCCN2C(=O)NCc2ccccc2)cc1 (stereo unspecified)	inconclusive: 126 µM [activator, single point]	–
CC(=O)Nc1ccc(S(=O)(=O)Nc2nccs2)cc1	inactive	–
Cc1ccc(NC(=O)C(=Cc2ccc(C(=O)O)cc2)C(=O)Nc2ccc(C)cc2C)c(C)c1	inactive	–
O=C1/C(=C\c2ccc(-c3ccccc3Cl)o2)SC(=S)N1CC1CCCO1 (stereo unspecified)	inconclusive: 100 µM [activator, partial curve]	–
CC12CC(O)C3c4ccc(O)cc4CCC3C1CC/C2=N\O (stereo unspecified)	inactive	–
CC1Cc2cc(C(=O)O)ccc2O1 (stereo unspecified)	inconclusive: 35.5 µM [activator, full curve, poor fit]	–
N#C/C(=C\c1ccc(Sc2ccc(Cl)cc2)o1)c1nc2ccccc2[nH]1	active: 100 µM	–
Cc1cc(C(=O)NCCCN2CC(C)CC(C)C2)n(-c2ccccc2)n1 (stereo unspecified)	inconclusive: 56.2 µM [activator, single point]	–
Cn1nc(-c2ccccc2)c2nc3ccccc3nc21	active: 100 µM	–
O=C(c1ccccc1)c1ccc(O)cc1O	active: 100 µM	–
Oc1ccc2ccc3cccc[n+]3c2c1	active: 100 µM	–
COc1ccc(-c2ccc3c(c2)O/C(=C\c2ccsc2)C3=O)cn1	inconclusive: 50.1 µM [activator, single point]	–
Oc1ccc(/C=N/Nc2cc(N3CCOCC3)nc(N3CCOCC3)n2)cc1O	inactive	–
CS(=O)(=O)N(CCc1ccccc1)CC(=O)NCc1ccc2c(c1)OCO2	–	inconclusive: 92.5% [activator] [at 15.6 µM, 100% = 6.5 mM cAMP response]
Cc1ccccc1C1c2[nH]c3ccccc3c2CCN1Cc1cccn1-c1ncccn1 (stereo unspecified)	inactive	–

SMILES	Potency	activation
O=c1c(/C=C(\O)c2ccccc2)nc2ccccc2n1-c1ccccc1	active: 100 µM	–
CN(C(=O)c1cccc(NC(=O)Cc2ccc(NC(=O)C3CCN(C(=O)C4CCC4)CC3)cc2)c1)C1CCCC1	inconclusive: 126 µM [activator, single point]	–
CC1(C(=O)Nc2ccc3c(c2)OCCO3)CN(S(C)(=O)=O)CC(=O)N1Cc1ccco1 (stereo unspecified)	inactive	–
CCSc1nc2sc3c(c2c(=O)[nH]1)CCc1ccccc1-3	inactive	–
CCOC(=O)CC1C(=O)NCCN1c1nc2ccc(C)cn2c(=O)c1/C=C1\SC(=S)N(CC(C)C)C1=O (stereo unspecified)	inconclusive: 39.8 µM [activator, partial curve]	–
COc1cc(-c2nnn(CC#N)n2)ccc1OCc1ccccc1	inconclusive: 63.1 µM [activator, partial curve]	–
COc1cc2c(cc1OC)CN(C(C)C(=O)N1CCc3ccccc31)CC2 (stereo unspecified)	inconclusive: 126 µM [activator, single point]	–
Nc1ccc(-c2c3ccc(=O)cc-3oc3cc(O)ccc23)cc1C(=O)O	active: 100 µM	–
CNc1cc(CSc2ccc(Cl)cc2)nc(C)n1	inactive	–
CCc1nc2c(OCc3cc(Cl)cc(Cl)c3)cccn2c1N(C=O)Cc1ccccc1	inactive	–
CCC(CN(C)C)Oc1cc(NCc2ccccc2)c2ncn(C(C)C)c2c1 (stereo unspecified)	inactive	–
c1ccc(CNc2nc(N3CCN(Cc4ccccc4)CC3)nc3ccccc23)cc1	inconclusive: 112 µM [activator, partial curve]	–
CCCCCCc1cc2cc(-c3nnc(-c4cc(OC)c(OC)c(OC)c4)o3)c(=O)oc2cc1O	inconclusive: 112 µM [activator, single point]	–
COc1cc(/C=C/C(=O)OCc2c(C)noc2C)ccc1OC(F)F	inactive	–
CCC12CC1(C(=O)OC)C(=O)N1CCc3c([nH]c4ccccc34)C12 (stereo unspecified)	inactive	–
Cn1cc(C(C[N+](=O)[O-])c2ccccc2)c2ccccc21 (stereo unspecified)	inactive	–
COc1cccc(C(C)(O)c2nc(-c3cnn(C)c3)cs2)c1 (stereo unspecified)	inactive	–
O=C(Cn1cnc2ccc(Br)cc2c1=O)c1cccs1	inconclusive: 126 µM [activator, single point]	–
COc1ccc(NC(=O)CN2CCCC2c2cccs2)cc1S(=O)(=O)N1CCCCC1 (stereo unspecified)	inconclusive: 44.7 µM [activator, full curve]	–
Cc1ccc(S(=O)(=O)c2nc(-c3ccco3)oc2SC(C)C)cc1	inactive	–
Cc1nn(C)c(C)c1N1C(=O)c2cccc3c(N)ccc(c23)C1=O	active: 100 µM	–
N#C/C(=C/c1ccc(N2CCCCC2)o1)C(=O)Nc1ccc(Cl)cc1	active: 100 µM	–
CC(Nc1ccc(Cl)cc1)c1cc(Cl)ccc1O (stereo unspecified)	inconclusive: 89.1 µM [activator, partial curve]	–
COc1ccc(-c2noc(N3CCC(C(=O)Nc4cc(OC)ccc4OC)CC3)n2)cc1	inconclusive: 126 µM [activator, partial curve, poor fit]	–

Pulled by compound from above, 5 records:
SMILES	Potency	activation
N#C/C(=C/c1ccc(N2CCCCC2)o1)C(=O)Nc1ccc(Cl)cc1	active: 100 µM	–
CCc1nc2c(OCc3cc(Cl)cc(Cl)c3)cccn2c1N(C=O)Cc1ccccc1	inactive	–
Cc1ccc(S(=O)(=O)c2nc(-c3ccco3)oc2SC(C)C)cc1	inactive	–
COc1ccc(-c2noc(N3CCC(C(=O)Nc4cc(OC)ccc4OC)CC3)n2)cc1	inconclusive: 126 µM [activator, partial curve, poor fit]	–
O=c1c(/C=C(\O)c2ccccc2)nc2ccccc2n1-c1ccccc1	active: 100 µM	–

From PubChem BioAssay AID720711 (National Center for Advancing Translational Sciences (NCATS), 2013)
